Assay results reported in article PMC6247701.
Results are given in words; binding and its absence hold for the method and conditions named. Binding seen in cells or lysates may run through a third protein. Some results given as binding are weak or reduced against the parent protein; the word gives no strength.

Amino acid sequences for entries named in this document (tags omitted). Residues count along the entry.
UniProt P04150: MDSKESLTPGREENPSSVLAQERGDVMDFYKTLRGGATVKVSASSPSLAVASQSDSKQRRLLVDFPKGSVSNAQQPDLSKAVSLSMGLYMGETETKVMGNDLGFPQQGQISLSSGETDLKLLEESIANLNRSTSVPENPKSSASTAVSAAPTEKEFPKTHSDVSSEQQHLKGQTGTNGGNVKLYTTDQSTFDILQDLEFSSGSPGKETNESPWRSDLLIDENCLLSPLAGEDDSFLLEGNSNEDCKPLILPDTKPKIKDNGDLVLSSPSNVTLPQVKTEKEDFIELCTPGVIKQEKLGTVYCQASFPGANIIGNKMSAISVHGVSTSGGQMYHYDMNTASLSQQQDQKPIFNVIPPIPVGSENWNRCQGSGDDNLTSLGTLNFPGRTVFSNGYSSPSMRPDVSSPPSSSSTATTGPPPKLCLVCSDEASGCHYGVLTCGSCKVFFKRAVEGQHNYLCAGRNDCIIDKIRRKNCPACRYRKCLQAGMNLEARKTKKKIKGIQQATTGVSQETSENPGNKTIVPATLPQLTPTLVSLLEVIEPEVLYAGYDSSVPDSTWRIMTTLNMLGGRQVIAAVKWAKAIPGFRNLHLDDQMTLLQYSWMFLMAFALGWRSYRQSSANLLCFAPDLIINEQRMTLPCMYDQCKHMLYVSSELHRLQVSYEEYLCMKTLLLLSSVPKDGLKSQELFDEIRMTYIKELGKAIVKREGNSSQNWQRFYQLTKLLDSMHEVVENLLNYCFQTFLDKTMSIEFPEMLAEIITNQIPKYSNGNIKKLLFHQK
UniProt P15941, residues 1182-1255: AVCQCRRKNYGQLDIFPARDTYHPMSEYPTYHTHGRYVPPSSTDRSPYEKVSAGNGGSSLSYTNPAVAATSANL

Molecular target: glucocorticoid receptor alpha (human (endogenous in primary HBECs)) (UniProt P04150)
Assay: co-IP; 200 μg protein from primary HBECs; IP with 2 μg anti-GRα or anti-MUC1-CT (IgG isotype control), protein G Sepharose 4B overnight at 4 °C, washed with NET buffer (50 mM Tris-HCl pH 8.0, 150 mM NaCl, 0.1% Nonidet P-40); western blot with anti-GRα or anti-MUC1-CT; cells stimulated with different concentrations of CSE, or with dexamethasone for 4 h

Substance: Mucin 1 cytoplasmic tail (from UniProt P15941 1182-1255)
- binding: binds
